Measurements reported in PubChem BioAssay AID504808 (Drosophila RNAi Screening Center, 2011)

Assay: 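Chromatin factors that keep E2F targets switched off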 (primary screen)
Cell system: Drosophila S2 cells
Knock-down reagent: long dsRNA against Drosophila genes
Read-out: 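Dual luciferase plate measurements; E2F-specific signal taken as firefly over Renilla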
Direction: E2F firefly: higher = more E2F reporter activity; Renilla normaliser: higher = more normaliser reporter signal
Active means: 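Called active if the normalised E2F reporter went up by over 50%; the cutoff is arbitrary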
The deposit covers about 21,000 reagents; shown is a random part of those that have a named target and a result. Of all reagents, 18 (0.084%) were called active. 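Raw counts without plate normalisation, one of two replicates; the ratio scores behind the calls were not deposited.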 Not stated in the record: the amount of reagent, the time to read-out.

With CG2070 [DRSC06814], what was measured?
E2F firefly, rep 1: 1.21e5; Renilla normaliser, rep 1: 4531; activity call: inactive

With NfI [DRSC17158], how do the results read?
E2F firefly, rep 1: 83340; Renilla normaliser, rep 1: 4396; activity call: inactive

For cd [DRSC16157], what was measured?
E2F firefly, rep 1: 1.12e5; Renilla normaliser, rep 1: 5847; activity call: inactive

With CRIF [DRSC11811], what was measured?
E2F firefly, rep 1: 1.33e5; Renilla normaliser, rep 1: 7508; activity call: inactive

What is on record for CG4438 [DRSC02746]?
E2F firefly, rep 1: 1.37e5; Renilla normaliser, rep 1: 4927; activity call: inactive

What did the screen give for Wbp2 [DRSC09821]?
E2F firefly, rep 1: 79896; Renilla normaliser, rep 1: 3108; activity call: inactive

For cnir [DRSC00499], what was measured?
E2F firefly, rep 1: 1.56e5; Renilla normaliser, rep 1: 5343; activity call: inactive

For Scm [DRSC16853], how do the results read?
E2F firefly, rep 1: 1.62e5; Renilla normaliser, rep 1: 6007; activity call: inactive

What is on record for fipi [DRSC00465]?
E2F firefly, rep 1: 1.27e5; Renilla normaliser, rep 1: 5155; activity call: inactive

Which result is listed for Cat [DRSC11110]?
E2F firefly, rep 1: 1.68e5; Renilla normaliser, rep 1: 8932; activity call: inactive

Which result is listed for CG1703 [DRSC19764]?
E2F firefly, rep 1: 7774; Renilla normaliser, rep 1: 932; activity call: inactive

For Ilp7 [DRSC17895], how do the results read?
E2F firefly, rep 1: 98798; Renilla normaliser, rep 1: 5133; activity call: inactive

For CG9815 [DRSC04567], what does the deposit list?
E2F firefly, rep 1: 99535; Renilla normaliser, rep 1: 4336; activity call: inactive

For pbl [DRSC11381], how do the results read?
E2F firefly, rep 1: 64873; Renilla normaliser, rep 1: 2847; activity call: inactive

What did the screen give for arx [DRSC10386]?
E2F firefly, rep 1: 65812; Renilla normaliser, rep 1: 3696; activity call: inactive

What did the screen give for mRRF1 [DRSC10421]?
E2F firefly, rep 1: 67894; Renilla normaliser, rep 1: 3418; activity call: inactive

With cad [DRSC03502], how do the results read?
E2F firefly, rep 1: 78225; Renilla normaliser, rep 1: 3951; activity call: inactive

What is on record for CG11123 [DRSC06040]?
E2F firefly, rep 1: 1.50e5; Renilla normaliser, rep 1: 4737; activity call: inactive

What did the screen give for CG1288 [DRSC12538]?
E2F firefly, rep 1: 1.20e5; Renilla normaliser, rep 1: 5498; activity call: inactive

For CG5043 [DRSC02805], what does the deposit list?
E2F firefly, rep 1: 96128; Renilla normaliser, rep 1: 3988; activity call: inactive

What did the screen give for CG32815 [DRSC18177]?
E2F firefly, rep 1: 66510; Renilla normaliser, rep 1: 3921; activity call: inactive

What is on record for Start1 [DRSC04384]?
E2F firefly, rep 1: 82098; Renilla normaliser, rep 1: 3324; activity call: inactive

How did the screen score CG14183 [DRSC10182]?
E2F firefly, rep 1: 78637; Renilla normaliser, rep 1: 3686; activity call: inactive

Which result is listed for Atet [DRSC00263]?
E2F firefly, rep 1: 1.55e5; Renilla normaliser, rep 1: 4470; activity call: inactive

Which result is listed for CSN5 [DRSC16592]?
E2F firefly, rep 1: 84364; Renilla normaliser, rep 1: 4793; activity call: inactive

What did the screen give for Sugb [DRSC10815]?
E2F firefly, rep 1: 67733; Renilla normaliser, rep 1: 3251; activity call: inactive

With ari-1 [DRSC20308], how do the results read?
E2F firefly, rep 1: 2.48e5; Renilla normaliser, rep 1: 6694; activity call: inactive

For Usp20-33 [DRSC07196], what does the deposit list?
E2F firefly, rep 1: 2826; Renilla normaliser, rep 1: 170; activity call: inactive
